From US20080269114A1 (priority 2004, published 2008)

Assay: general procedure: Fmoc solid-phase peptide synthesis; PAL Peg-PS resin; HCTU
Conditions: whole synthesis, analytical HPLC, Vydac C18, 215 nm

Substance | purity (crude or final not stated) [%]
Met30,Pro34]PYY | 96.9
[Ala1,Pro34]-PYY | 95.0
[Ala30,Pro34]-PYY | 90.0
[Arg26,Pro34]PYY | 98.9
[CLTRPRY-amide]x2 | 99.3
[CTRPRY-amide]x2 | 100
[Cys2,D-Cys27]-PP | 98.7
[Glu4,Pro34]PYY | 100
[Ile28,Pro34]PYY | 97.0
[Pro34]-PYY | 91.6
